The source of these data is the supplement of paper PMC7666118.

The chains behind the UniProt entries cited, without tags or fusion partners. Where a name states a change or a piece, a line headed by the entry shows the natural chain unless it says otherwise.
UniProt Q8TE02: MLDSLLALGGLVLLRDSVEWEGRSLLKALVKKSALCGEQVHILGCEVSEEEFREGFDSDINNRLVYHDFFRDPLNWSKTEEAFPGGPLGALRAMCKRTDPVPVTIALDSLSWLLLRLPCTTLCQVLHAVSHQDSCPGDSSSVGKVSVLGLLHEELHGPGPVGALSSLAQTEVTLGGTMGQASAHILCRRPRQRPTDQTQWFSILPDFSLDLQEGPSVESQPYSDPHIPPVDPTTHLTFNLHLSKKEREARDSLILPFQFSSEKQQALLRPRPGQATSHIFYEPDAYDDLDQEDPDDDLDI
UniProt P30043: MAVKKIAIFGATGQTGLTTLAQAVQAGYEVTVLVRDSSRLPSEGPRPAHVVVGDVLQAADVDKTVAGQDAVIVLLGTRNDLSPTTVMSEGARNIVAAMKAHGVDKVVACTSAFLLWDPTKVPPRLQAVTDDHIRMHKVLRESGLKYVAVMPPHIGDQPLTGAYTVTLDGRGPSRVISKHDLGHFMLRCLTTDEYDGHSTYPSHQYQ
UniProt Q9NPA0: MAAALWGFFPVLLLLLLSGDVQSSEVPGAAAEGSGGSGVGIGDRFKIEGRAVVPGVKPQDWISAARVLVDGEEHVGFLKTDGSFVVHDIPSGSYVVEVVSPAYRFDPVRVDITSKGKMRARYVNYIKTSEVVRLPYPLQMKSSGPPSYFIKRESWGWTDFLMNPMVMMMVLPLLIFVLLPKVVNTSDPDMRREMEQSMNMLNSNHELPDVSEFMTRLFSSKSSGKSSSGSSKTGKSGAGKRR
UniProt Q5VWN6: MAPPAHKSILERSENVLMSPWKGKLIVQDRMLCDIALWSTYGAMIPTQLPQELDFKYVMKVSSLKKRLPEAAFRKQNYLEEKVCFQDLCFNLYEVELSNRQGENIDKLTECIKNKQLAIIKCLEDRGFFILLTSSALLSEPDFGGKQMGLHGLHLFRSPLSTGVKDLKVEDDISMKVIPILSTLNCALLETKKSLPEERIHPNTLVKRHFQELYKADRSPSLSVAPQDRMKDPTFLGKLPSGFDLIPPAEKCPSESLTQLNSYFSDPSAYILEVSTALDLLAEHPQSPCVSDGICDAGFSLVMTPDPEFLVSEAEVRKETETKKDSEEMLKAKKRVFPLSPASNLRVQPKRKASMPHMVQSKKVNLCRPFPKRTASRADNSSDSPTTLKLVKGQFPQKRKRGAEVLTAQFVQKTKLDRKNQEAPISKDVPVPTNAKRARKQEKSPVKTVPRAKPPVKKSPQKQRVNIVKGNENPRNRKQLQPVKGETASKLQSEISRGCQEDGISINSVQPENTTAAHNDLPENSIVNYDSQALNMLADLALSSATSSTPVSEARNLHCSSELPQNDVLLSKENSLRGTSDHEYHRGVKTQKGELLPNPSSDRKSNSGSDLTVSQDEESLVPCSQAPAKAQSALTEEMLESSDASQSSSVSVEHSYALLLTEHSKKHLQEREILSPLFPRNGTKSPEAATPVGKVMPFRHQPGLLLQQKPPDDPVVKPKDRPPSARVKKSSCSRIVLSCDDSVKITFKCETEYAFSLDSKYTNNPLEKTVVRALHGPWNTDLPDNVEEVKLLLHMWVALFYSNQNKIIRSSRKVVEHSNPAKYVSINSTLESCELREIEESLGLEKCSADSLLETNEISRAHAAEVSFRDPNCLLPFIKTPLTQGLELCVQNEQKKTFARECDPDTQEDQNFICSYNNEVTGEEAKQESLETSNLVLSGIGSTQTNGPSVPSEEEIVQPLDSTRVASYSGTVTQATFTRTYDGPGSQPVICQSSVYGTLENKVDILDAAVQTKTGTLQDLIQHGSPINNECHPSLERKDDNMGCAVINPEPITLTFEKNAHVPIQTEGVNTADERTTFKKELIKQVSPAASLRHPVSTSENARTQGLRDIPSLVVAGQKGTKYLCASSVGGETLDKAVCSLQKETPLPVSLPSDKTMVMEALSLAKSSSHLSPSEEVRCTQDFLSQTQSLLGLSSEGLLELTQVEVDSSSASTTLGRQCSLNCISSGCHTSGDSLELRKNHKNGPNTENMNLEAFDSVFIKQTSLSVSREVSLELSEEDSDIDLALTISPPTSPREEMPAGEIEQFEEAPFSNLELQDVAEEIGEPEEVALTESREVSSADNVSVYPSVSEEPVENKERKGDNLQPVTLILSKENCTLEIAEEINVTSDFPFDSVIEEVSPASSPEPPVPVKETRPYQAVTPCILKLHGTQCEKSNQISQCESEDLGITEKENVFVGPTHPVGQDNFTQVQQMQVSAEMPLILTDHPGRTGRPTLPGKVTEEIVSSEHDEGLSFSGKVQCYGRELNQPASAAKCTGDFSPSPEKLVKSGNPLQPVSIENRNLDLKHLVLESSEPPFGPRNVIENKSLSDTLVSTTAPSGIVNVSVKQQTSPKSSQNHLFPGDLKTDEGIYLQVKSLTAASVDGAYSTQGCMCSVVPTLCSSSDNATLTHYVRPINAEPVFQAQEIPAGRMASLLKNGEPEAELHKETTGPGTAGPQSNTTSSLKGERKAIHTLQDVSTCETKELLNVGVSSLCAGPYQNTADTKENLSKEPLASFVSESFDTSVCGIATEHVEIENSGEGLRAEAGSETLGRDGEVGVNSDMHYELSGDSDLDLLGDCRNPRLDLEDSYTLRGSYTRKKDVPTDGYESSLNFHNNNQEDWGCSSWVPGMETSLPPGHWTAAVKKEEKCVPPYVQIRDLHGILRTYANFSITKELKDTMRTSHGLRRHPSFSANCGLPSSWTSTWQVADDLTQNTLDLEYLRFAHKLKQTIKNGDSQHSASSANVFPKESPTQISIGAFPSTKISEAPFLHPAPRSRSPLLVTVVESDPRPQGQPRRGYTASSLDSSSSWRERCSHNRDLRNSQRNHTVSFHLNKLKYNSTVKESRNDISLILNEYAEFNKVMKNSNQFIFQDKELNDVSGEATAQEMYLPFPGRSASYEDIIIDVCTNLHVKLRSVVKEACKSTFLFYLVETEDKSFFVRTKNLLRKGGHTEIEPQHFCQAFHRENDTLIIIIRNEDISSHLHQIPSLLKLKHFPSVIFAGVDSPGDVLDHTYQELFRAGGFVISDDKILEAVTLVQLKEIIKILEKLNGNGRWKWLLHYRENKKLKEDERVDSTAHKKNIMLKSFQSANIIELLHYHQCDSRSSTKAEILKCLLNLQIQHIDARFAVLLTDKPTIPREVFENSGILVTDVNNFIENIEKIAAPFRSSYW
UniProt Q96SY0, whole entry: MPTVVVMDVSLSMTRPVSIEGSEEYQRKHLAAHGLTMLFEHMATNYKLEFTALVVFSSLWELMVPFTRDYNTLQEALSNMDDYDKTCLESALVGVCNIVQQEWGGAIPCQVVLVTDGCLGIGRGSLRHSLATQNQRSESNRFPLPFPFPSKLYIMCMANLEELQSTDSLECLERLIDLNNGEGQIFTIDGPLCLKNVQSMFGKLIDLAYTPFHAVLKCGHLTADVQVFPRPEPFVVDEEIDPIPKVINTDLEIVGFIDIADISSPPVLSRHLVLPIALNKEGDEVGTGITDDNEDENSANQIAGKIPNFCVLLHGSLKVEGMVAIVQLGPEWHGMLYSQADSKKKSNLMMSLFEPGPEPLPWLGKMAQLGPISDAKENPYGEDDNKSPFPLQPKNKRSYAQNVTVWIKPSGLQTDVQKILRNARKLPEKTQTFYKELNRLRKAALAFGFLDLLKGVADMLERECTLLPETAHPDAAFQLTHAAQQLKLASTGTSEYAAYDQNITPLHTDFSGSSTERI
UniProt Q9UII2: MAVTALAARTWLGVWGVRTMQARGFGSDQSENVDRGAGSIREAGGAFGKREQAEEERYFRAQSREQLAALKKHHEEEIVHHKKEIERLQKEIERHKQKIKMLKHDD
UniProt Q9NYM9: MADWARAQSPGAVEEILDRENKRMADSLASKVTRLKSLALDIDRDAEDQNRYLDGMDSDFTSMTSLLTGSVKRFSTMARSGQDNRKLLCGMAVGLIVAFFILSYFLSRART
UniProt P78537: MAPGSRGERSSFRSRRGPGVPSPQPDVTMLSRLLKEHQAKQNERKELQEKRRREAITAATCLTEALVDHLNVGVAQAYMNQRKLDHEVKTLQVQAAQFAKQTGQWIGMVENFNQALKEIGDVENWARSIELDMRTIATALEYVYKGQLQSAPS
UniProt P23634: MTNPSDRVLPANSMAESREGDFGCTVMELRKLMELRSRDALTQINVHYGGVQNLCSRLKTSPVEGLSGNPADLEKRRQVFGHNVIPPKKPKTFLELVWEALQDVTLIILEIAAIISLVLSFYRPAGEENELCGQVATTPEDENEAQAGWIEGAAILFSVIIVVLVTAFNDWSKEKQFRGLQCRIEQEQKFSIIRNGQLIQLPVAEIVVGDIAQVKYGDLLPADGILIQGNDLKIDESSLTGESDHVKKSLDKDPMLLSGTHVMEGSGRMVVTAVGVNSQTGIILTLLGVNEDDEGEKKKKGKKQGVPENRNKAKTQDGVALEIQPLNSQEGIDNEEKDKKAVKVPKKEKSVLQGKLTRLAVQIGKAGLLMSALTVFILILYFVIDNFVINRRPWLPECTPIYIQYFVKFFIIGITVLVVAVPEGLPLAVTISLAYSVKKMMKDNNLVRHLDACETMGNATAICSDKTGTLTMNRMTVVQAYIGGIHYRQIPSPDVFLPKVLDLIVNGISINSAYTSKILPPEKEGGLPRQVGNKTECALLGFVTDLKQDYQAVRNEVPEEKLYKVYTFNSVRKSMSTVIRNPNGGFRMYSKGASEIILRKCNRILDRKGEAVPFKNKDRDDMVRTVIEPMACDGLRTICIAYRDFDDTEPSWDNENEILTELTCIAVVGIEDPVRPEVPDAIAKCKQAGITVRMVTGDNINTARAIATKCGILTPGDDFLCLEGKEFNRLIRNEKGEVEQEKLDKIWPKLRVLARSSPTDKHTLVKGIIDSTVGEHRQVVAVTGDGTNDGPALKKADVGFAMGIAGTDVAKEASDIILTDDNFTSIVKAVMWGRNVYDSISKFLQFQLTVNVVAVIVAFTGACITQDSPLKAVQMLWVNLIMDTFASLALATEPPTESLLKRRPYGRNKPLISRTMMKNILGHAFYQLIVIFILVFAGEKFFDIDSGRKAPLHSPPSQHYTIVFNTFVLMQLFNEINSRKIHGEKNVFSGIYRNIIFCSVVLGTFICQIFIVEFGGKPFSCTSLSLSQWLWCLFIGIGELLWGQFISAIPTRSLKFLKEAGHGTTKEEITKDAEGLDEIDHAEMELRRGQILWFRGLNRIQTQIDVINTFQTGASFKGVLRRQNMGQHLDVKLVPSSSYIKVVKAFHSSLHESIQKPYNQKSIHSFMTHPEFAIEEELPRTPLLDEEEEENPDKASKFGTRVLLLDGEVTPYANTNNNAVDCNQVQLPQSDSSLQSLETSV
UniProt Q13825: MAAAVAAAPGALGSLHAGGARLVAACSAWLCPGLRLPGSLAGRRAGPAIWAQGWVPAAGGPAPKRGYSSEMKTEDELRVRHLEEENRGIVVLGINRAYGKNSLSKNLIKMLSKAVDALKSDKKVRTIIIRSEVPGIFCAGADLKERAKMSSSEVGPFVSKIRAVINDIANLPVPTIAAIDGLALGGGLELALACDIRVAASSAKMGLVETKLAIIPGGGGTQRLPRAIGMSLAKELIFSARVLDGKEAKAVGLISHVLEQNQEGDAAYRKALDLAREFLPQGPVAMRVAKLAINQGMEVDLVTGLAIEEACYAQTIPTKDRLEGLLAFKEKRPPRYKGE
UniProt O75947: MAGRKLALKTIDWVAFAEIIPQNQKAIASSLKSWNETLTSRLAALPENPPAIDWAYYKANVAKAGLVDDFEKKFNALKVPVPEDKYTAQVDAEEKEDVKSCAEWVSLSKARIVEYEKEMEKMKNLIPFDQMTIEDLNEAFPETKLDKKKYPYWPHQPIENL
UniProt Q969H8: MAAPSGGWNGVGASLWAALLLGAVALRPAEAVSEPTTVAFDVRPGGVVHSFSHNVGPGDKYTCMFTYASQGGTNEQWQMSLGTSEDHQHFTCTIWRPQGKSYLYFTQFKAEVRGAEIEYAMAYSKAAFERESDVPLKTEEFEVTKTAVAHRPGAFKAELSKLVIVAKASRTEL
UniProt Q9BXV9: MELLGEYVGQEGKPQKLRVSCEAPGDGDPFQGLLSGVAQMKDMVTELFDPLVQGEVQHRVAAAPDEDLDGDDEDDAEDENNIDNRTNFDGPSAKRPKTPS
UniProt Q9H6D7: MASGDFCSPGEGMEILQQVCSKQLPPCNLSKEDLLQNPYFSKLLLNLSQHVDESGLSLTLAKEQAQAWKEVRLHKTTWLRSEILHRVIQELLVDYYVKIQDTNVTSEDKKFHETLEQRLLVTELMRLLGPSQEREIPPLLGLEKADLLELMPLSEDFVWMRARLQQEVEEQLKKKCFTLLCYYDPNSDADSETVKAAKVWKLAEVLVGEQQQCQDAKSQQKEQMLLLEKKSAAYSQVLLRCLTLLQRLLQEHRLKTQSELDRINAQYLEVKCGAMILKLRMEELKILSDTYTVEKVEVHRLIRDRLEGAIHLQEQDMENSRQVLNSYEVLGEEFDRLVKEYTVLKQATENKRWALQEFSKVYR
UniProt O95563: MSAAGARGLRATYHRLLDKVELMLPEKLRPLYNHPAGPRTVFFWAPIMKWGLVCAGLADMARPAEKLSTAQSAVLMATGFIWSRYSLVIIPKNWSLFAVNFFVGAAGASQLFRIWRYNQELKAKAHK

Some of the results follow.

Compound in the test: COc1ccc(Cn2ccc3cc(C)c(C(=O)NO)cc32)cc1
Briefly: dose-dependent thermal stabilisation call (2D-TPP, DLPTP, 10% FDR) (binary (1 = stabilised)); higher = stabilised by the compound. To be noted: system: HL-60 intact cells; concentration range 0.04-10 µM. As to the method: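 2D thermal proteome profiling in intact HL-60 cells treated with BRD-3811 (0, 0.04, 0.29, 2, 10 uM) for 90 min at 37 C, then heated 3 min at one of 12 temperatures (42-63.9 C). Soluble protein was quantified by TMT10 MS. The value is the DLPTP call of the paper: dose-dependent thermal stabilisation over all temperatures at 10% FDR (F-test of a dose-response against a flat model); one experiment, one call per tested protein.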
In the case of ATP5A1 (UniProt P25705), the “dose-dependent thermal stabilisation call” value is inactive: 0. Under C17ORF81 (UniProt Q8TE02) stands inactive: 0; under BLVRB (UniProt P30043), inactive: 0.

In the case of ATR (UniProt Q13535), the “dose-dependent thermal stabilisation call” value was inactive: 0.

As to BBX (UniProt Q8WY36), the “dose-dependent thermal stabilisation call” value was inactive: 0. The figure for C15ORF24 (UniProt Q9NPA0) is inactive: 0. For C10ORF18 (UniProt Q5VWN6), the “dose-dependent thermal stabilisation call” value is inactive: 0.

For the target C15ORF44 (UniProt Q96SY0), the “dose-dependent thermal stabilisation call” value is inactive: 0. Under ATPIF1 (UniProt Q9UII2) stands inactive: 0. Turning to BET1L (UniProt Q9NYM9), the “dose-dependent thermal stabilisation call” value was inactive: 0. Under BRD2 (UniProt P25440) stands inactive: 0; under ATP1A1 (UniProt P05023), inactive: 0. Under C14ORF149 (UniProt Q96EM0) stands inactive: 0; under BTF3 (UniProt P20290), inactive: 0; under BTN2A1 (UniProt Q7KYR7), inactive: 0. Under BLOC1S1 (UniProt P78537) stands inactive: 0; under ATP11A (UniProt P98196), inactive: 0. Take C14ORF126 (UniProt Q96FN9): the “dose-dependent thermal stabilisation call” value was inactive: 0.

As for BTBD1 (UniProt Q9H0C5), the “dose-dependent thermal stabilisation call” value is inactive: 0.

As for C16ORF61 (UniProt Q9NRP2), the “dose-dependent thermal stabilisation call” value is inactive: 0. The figure for ATP9B (UniProt O43861) is inactive: 0; for ATP2B4 (UniProt P23634) it is inactive: 0. The figure for C17ORF71 (UniProt Q8ND04) is inactive: 0. Under BCL7C (UniProt Q8WUZ0) stands inactive: 0; under C10ORF118 (UniProt Q7Z3E2), inactive: 0. For C12ORF73 (UniProt Q69YU5), the “dose-dependent thermal stabilisation call” value was inactive: 0.

Take AUH (UniProt Q13825): the “dose-dependent thermal stabilisation call” value was inactive: 0.

In the case of ATP5H (UniProt O75947), the “dose-dependent thermal stabilisation call” value was inactive: 0. Under C19ORF10 (UniProt Q969H8) stands inactive: 0.

For ATP11C (UniProt Q8NB49), the “dose-dependent thermal stabilisation call” value was inactive: 0. The figure for BDH1 (UniProt Q02338) is inactive: 0.

Consider C14ORF142 (UniProt Q9BXV9), for which the “dose-dependent thermal stabilisation call” value was inactive: 0. Under C14ORF94 (UniProt Q9H6D7) stands inactive: 0; under BRP44 (UniProt O95563), inactive: 0; under UniProt B3GNT1, inactive: 0.

As for ATP5D (UniProt P30049), the “dose-dependent thermal stabilisation call” value was inactive: 0.
